The results in this text go back to the supplement of paper PMC10849652.

Chains of the proteins cited; added tags and fusions are not shown. Lines headed by an entry give the natural chain unless they say otherwise; changes in a name come on top.
UniProt Q9HD34: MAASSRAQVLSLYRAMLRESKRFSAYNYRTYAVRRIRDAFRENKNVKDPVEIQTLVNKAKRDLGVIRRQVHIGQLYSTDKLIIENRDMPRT
UniProt Q3KQU3: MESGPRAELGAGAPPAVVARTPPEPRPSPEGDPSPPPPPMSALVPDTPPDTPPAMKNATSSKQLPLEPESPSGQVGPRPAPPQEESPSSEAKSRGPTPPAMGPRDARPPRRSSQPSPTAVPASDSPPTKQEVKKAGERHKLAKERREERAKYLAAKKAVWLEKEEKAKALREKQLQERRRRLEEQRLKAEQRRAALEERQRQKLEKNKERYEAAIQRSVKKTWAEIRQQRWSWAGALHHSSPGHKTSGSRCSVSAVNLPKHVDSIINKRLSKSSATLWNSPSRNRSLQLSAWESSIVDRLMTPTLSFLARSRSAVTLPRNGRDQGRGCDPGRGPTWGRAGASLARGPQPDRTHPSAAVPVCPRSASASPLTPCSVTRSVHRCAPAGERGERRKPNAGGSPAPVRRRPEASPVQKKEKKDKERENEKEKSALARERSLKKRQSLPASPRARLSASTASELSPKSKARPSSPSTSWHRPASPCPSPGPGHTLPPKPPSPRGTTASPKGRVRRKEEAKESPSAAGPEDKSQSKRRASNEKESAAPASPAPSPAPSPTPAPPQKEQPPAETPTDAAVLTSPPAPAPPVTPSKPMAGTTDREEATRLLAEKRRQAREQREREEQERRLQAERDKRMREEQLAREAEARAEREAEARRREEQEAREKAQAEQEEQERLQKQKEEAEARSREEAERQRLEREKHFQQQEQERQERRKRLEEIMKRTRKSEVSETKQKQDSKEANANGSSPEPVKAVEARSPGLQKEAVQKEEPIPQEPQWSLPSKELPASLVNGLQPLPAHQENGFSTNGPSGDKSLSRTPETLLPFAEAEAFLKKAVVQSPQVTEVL
UniProt Q7L5Y9: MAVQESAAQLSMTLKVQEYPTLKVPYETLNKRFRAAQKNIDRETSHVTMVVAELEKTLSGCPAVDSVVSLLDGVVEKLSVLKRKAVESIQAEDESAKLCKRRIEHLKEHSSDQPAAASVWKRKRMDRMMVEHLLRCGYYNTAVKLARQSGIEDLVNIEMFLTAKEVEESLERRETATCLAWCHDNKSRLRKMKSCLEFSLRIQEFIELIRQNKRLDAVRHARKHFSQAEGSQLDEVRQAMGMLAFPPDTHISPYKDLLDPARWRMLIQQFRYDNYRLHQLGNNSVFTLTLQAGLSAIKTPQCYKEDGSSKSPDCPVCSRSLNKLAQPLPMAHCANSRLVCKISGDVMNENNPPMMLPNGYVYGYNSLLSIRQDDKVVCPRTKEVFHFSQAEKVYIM
UniProt O60337: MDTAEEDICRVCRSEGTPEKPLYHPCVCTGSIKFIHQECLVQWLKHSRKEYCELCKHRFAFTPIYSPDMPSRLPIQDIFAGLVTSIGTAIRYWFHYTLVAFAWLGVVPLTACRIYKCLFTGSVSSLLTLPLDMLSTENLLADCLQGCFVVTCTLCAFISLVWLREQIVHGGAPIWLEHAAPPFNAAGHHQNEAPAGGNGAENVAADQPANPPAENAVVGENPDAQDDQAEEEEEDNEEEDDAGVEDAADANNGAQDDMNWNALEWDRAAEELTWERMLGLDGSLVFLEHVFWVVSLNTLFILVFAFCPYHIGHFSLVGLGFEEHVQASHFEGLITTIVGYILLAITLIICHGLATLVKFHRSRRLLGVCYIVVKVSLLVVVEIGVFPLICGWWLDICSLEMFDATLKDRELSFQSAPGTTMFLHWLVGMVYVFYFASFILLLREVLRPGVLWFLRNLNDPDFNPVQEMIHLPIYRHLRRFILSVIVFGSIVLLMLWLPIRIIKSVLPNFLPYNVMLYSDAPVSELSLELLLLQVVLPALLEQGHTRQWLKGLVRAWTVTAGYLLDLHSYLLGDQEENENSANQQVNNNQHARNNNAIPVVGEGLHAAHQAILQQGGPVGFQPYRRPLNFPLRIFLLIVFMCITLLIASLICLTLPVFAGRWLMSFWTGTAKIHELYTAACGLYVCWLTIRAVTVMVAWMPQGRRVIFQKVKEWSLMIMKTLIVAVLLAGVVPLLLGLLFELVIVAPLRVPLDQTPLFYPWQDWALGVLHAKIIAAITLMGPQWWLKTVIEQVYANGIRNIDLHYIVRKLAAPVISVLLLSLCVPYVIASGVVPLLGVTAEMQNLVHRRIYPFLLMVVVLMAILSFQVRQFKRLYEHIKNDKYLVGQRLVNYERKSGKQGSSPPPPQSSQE
UniProt Q8IWT6: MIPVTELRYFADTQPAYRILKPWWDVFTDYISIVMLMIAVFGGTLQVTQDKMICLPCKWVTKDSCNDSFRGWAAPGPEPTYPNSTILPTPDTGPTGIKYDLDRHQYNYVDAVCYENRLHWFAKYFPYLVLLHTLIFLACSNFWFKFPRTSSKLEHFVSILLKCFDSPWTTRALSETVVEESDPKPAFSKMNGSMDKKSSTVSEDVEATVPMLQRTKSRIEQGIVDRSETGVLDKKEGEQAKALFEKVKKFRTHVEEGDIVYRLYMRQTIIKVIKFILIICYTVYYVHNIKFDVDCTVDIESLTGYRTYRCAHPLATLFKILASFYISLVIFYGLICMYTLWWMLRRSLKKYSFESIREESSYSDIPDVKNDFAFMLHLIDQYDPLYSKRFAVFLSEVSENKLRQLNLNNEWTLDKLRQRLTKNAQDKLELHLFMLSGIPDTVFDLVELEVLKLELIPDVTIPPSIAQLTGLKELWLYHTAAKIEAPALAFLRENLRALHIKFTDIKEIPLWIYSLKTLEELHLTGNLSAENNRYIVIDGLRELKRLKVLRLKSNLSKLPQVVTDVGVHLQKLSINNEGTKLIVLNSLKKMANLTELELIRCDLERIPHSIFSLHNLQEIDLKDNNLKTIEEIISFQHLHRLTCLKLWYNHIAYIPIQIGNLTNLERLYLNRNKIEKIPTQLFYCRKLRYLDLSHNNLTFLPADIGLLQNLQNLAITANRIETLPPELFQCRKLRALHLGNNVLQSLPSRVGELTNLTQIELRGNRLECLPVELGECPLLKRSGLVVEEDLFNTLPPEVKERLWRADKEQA
UniProt Q9H0U3: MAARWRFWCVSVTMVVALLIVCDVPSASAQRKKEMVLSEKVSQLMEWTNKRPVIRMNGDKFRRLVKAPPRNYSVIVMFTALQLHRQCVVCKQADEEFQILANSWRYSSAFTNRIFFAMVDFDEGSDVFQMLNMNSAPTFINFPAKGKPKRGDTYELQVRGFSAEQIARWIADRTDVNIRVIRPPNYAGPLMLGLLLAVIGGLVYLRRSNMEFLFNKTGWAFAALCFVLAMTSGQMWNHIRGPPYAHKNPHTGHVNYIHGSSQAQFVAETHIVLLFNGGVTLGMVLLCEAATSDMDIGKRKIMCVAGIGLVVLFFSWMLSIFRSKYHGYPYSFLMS
UniProt P20645: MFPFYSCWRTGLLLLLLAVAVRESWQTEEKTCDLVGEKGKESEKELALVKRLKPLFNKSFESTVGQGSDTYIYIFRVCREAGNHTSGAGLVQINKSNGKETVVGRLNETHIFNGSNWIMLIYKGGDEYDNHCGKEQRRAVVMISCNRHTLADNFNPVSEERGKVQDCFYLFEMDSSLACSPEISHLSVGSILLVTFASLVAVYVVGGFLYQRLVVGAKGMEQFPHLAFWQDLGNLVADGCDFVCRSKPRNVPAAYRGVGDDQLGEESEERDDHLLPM
UniProt P62312: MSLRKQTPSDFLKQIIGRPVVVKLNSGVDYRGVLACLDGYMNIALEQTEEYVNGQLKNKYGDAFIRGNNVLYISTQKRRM
UniProt Q9Y333: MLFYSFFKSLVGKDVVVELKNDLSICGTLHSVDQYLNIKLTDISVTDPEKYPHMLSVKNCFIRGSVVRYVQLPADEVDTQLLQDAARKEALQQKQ
UniProt P45985: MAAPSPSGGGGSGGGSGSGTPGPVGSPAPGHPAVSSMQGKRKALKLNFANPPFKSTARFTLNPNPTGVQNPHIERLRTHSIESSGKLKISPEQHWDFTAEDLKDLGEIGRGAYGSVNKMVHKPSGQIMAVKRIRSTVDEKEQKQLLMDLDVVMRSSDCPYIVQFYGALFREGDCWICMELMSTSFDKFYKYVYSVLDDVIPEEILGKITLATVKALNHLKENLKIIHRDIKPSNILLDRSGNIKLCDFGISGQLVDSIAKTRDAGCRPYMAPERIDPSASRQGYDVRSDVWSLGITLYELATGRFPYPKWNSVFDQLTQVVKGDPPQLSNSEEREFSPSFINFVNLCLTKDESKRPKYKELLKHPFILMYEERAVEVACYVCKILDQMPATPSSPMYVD
UniProt Q16706: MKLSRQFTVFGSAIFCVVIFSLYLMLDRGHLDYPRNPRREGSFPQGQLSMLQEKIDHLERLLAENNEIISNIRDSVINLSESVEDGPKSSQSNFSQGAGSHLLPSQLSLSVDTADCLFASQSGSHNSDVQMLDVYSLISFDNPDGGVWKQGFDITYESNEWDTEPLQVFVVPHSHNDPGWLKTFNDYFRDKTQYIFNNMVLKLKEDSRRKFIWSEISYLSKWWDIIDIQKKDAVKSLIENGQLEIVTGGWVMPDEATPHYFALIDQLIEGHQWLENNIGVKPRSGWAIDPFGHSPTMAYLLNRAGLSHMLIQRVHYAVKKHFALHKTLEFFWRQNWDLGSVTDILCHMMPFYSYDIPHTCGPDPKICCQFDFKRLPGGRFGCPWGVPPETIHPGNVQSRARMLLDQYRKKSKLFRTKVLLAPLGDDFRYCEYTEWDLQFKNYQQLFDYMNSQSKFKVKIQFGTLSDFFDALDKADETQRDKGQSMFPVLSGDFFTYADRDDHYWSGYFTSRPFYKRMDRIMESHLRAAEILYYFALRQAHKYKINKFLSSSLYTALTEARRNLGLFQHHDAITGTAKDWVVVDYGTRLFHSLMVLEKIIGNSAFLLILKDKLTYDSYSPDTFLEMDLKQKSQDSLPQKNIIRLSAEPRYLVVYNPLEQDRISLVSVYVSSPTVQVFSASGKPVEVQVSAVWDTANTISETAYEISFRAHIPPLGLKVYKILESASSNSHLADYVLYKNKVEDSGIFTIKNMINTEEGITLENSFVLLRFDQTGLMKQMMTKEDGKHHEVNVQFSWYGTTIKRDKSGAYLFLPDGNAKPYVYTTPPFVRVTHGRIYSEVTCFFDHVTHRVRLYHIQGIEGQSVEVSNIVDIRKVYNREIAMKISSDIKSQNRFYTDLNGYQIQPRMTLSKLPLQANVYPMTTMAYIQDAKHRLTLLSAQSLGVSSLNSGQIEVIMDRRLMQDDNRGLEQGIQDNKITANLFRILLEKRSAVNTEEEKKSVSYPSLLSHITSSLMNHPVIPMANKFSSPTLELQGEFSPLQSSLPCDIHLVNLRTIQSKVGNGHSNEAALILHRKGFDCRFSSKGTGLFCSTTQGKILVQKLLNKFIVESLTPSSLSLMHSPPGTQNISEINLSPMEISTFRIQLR
UniProt Q9Y4Z0: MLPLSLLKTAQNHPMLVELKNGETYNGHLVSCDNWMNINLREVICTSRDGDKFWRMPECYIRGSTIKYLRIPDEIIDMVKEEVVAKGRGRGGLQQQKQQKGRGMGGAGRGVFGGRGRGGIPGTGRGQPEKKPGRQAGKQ
UniProt P28482, whole entry, looked up: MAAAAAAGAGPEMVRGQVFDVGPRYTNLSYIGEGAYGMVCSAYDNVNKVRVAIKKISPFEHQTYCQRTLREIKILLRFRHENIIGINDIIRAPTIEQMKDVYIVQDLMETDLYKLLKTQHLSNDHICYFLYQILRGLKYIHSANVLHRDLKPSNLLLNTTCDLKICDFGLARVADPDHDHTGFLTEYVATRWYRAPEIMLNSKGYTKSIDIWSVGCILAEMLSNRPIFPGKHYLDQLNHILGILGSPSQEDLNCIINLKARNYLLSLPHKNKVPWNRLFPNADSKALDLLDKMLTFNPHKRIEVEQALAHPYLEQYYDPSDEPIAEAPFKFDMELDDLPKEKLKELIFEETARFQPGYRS
UniProt Q8N5G2: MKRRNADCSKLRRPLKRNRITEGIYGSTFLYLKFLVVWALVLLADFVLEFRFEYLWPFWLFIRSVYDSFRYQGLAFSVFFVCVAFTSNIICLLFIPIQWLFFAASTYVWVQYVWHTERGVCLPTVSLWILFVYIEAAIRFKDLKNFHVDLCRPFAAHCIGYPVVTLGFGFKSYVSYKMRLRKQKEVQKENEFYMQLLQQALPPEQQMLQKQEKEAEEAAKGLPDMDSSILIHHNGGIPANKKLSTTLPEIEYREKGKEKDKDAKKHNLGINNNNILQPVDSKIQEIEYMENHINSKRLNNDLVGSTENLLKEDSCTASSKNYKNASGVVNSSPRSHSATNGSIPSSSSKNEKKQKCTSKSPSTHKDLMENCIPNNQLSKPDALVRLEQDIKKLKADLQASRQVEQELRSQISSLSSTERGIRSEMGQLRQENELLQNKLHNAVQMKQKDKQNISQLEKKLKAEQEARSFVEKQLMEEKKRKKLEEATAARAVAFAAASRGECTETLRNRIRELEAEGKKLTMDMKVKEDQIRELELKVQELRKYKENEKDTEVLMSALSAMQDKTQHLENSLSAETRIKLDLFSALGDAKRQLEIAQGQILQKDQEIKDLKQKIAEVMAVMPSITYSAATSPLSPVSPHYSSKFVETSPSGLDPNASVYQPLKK

The list shows a part of the results.

Compound in this experiment: CCCCN(Cc1ccc(C(=O)NO)cc1)C(=O)Nc1ccccc1 [Nexturastat A]
Put plainly: log2 fold change, soluble protein after heating vs DMSO (PISA); higher = thermal stabilisation; K562 cells, 10 uM, 30 min; active = over 0.2 and 3.5 SD of the protein, either way, in both replicates (recomputed). The method in brief: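 K562 cells at 2×10^6 cells/mL were given 10 μM compound for 30 min. Aliquots then went through 3 min of heating across 48°C-58°C, were pooled, and were extracted in PBS with 0.5% NP-40 at 4°C, and the supernatant after 21,000xg for 90 min was quantified by TMTpro 16plex LC-MS/MS with channel sums equalised. Thermal stability relative to control samples, from duplicates, is given as log2 fold change.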
With LYRM4 (UniProt Q9HD34), the log2 fold change was inactive: -0.01.
With MAGEB2 (UniProt O15479) the figure was inactive: 0.119; with MAP1A isoform 2 (UniProt P78559), inactive: 0.142; with MANBA (UniProt O00462), inactive: -0.043.
To MAP7D1 (UniProt Q3KQU3) belongs inactive: 0.231; to MAEA (UniProt Q7L5Y9), inactive: -0.057.
With MARCHF6 (UniProt O60337) the figure was inactive: 0.014; with LRRC8A (UniProt Q8IWT6), inactive: 0.133; with MAGT1 (UniProt Q9H0U3), inactive: 0.029.
As for M6PR (UniProt P20645), the log2 fold change was inactive: -0.066.
With LSM6 (UniProt P62312) the figure was inactive: -0.07.
With LSM2 (UniProt Q9Y333) the figure was inactive: -0.059; with MACF1 (UniProt H3BQK9), inactive: 0.131.
To LYZ (UniProt P61626) belongs inactive: -0.116; to MAP2K4 isoform 2 (UniProt P45985), inactive: -0.049; to LRRFIP2 (UniProt Q9Y608), inactive: -0.004.
For MAN2C1 isoform 4 (UniProt Q9NTJ4), the log2 fold change is inactive: -0.062.
To LRSAM1 (UniProt Q6UWE0) belongs inactive: -0.121; to MAN2A1 (UniProt Q16706), inactive: -0.035.
To LSM4 (UniProt Q9Y4Z0) belongs inactive: -0.063.
To MAPK1 (UniProt P28482) belongs inactive: -0.06; to MACO1 (UniProt Q8N5G2), inactive: 0.063.
Consider MAN2A2 (UniProt P49641), for which the log2 fold change was inactive: -0.016.
